Measurements from US12139480B2, “5-thiazolecarboxamide kinase inhibitor and uses thereof” (iOmx Therapeutics AG, priority 2018, dated 2024).

Test system: diverse set of 320 wild-type protein kinases
Experiment: single-point (1 uM) inhibition assay (ProQinase Kinase Profiler), whole panel
Assay type: biochemical
Conditions: 1 uM compound; for number of kinases inhibited by greater than 50% that retain more than 50% activity with the other compound: B3 versus A8

Compound	number of kinases inhibited by greater than 50% that retain more than 50% activity with the other compound	number of kinases inhibited to less than 1% residual activity (320 kinases)	number of kinases inhibited, threshold of <5% residual activity (320 kinases)
Cc1nc(Nc2ncc(C(=O)Nc3c(C)cccc3Cl)s2)cc(N2CCN(CCO)CC2)n1 [Compound A8, N-(2-chloro-6-methylphenyl)-2-((6-(4-(2-hydroxyethyl)piperazin-1-yl)-2-methylpyrimidin-4-yl)amino)thiazole-5-carboxamide, reference compound]	9	–	–
Cc1nc(Nc2ncc(C(=O)Nc3c(Cl)ccnc3C)s2)cc(N2CCN(CCO)CC2)n1 [Compound B3, N-(4-chloro-2-methylpyridin-3-yl)-2-((6-(4-(2-hydroxyethyl)piperazin-1-yl)-2-methylpyrimidin-4-yl)amino)thiazole-5-carboxamide]	one	13	30
